In publication PMC7819943, “Rice protein-binding microarrays: a tool to detect cis-acting elements near promoter regions in rice” one finds binding signal data, which are given here for 42 sequences.

The other results are listed elsewhere or left out.

This test addresses T1, OsSMF1 (Oryza sativa, UniProt Q6ZLB0 1-436).
T1 sequence: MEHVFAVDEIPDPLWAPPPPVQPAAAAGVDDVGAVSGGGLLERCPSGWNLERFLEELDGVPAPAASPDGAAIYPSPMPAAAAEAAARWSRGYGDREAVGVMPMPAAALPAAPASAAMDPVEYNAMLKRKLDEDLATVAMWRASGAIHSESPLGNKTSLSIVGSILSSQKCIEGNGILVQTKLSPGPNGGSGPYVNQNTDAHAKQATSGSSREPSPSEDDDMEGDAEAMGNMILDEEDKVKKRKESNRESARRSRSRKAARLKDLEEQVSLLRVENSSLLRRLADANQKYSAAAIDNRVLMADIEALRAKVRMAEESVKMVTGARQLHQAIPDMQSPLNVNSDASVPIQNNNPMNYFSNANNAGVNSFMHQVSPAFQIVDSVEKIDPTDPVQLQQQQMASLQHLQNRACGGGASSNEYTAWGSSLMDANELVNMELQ
As to the kind of experiment: protein-binding microarray (RPBM); PBS, 2% BSA, 51.3 ng/ul salmon testes DNA, 50 uM zinc acetate, 200 nM TF, 25 C, 1 h; high values mean tight binding. Particulars: protein: recombinant; tags: N-terminal polyhistidine and DsRed monomer fusion (pET32a); chain copies: 2; label: CyDye5-dUTP incorporated in the synthesized complementary strand; 3' TTTTT single-stranded linker to array surface; dsDNA, one strand shown. In a few lines:
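The binding signal for each feature is its fluorescence intensity in arbitrary units. An Axon 4000B scanner was used to read a custom Agilent array that had been made double-stranded with Cy5-dUTP primer extension, blocked with 2% BSA, incubated at 25 °C for 1 h with 200 nM protein in PBS, 2% BSA, salmon testes DNA and 50 µM zinc acetate, and washed. The protein was an N-terminal polyhistidine–DsRed transcription factor fusion from E. coli BL21-CodonPlus, purified on Ni–NTA.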
“GAATACCAAGAACGACGTCATACAAGACTGACGTGCGGTCCGGAGTCACCTAGTGCAG”: the binding signal was 5690 fluorescence intensity (a.u.).

As for “TTGTATTTTGGAAATATGACGCATTAGATGTTTTATATATCGGAGTCACCTAGTGCAG”, the binding signal is 3570 fluorescence intensity (a.u.).

As to “ACCAAGAAGTCTACACAATGTCAGTGTCAGTTGTAGTGAGCGGAGTCACCTAGTGCAG”, the binding signal is 3200 fluorescence intensity (a.u.).

With “TTAACCAAATGTTGTCATAACATTTATAACCAAAGTGAGTCGGAGTCACCTAGTGCAG”, the binding signal was 3480 fluorescence intensity (a.u.).

With “CCTCTTCTCCTTCTCTGTGCCTTGTCGACGAGGCGTGGCCCGGAGTCACCTAGTGCAG”, the binding signal is 4400 fluorescence intensity (a.u.).

As to “AAGGGAAAATAATGGAGAAAATAATGACGGAGGAGTGGGGCGGAGTCACCTAGTGCAG”, the binding signal was 3510 fluorescence intensity (a.u.).

As for “GCAGCTGCATATGGCATCGACACCAATTGGTACCTCGACACGGAGTCACCTAGTGCAG”, the binding signal is 4080 fluorescence intensity (a.u.).

On to “CCCAAGTCCCCGCCACATCCGACTCTTTATATACCTCCCTCGGAGTCACCTAGTGCAG”, for which the binding signal is 3350 fluorescence intensity (a.u.).

For the sequence “CTTTCGTTTGTGCGCATCAGCACATGCCCGCGTTGCACGTCGGAGTCACCTAGTGCAG”, the binding signal was 3370 fluorescence intensity (a.u.).

Take “TCTCTTAGGTGCCATACCTCTATGCTAGAGATGAAAAGCTCGGAGTCACCTAGTGCAG”: the binding signal was 24600 fluorescence intensity (a.u.).

On to “GTATGGCGTCAAGGAGCCGCGCCATGTCCTGGTCGTGACGCGGAGTCACCTAGTGCAG”, for which the binding signal is 4160 fluorescence intensity (a.u.).

For the sequence “GTTTCCCCTCGTCTTCATCATCATCGTCAGCAGCAGCAGCCGGAGTCACCTAGTGCAG”, the binding signal was 8030 fluorescence intensity (a.u.).

As to “CGGCAGGTTTGCCCACTCCTGATTGGTCCACGTGGAGCTGCGGAGTCACCTAGTGCAG”, the binding signal is 12200 fluorescence intensity (a.u.).

Regarding “GACACACGTAATCTCAACCATCCGATTGCCATATCCAACTCGGAGTCACCTAGTGCAG”, the binding signal is 3830 fluorescence intensity (a.u.).

As to “TCGTCGACGTGGCGTTGACGTGGCGGTATTGACCTAATCTCGGAGTCACCTAGTGCAG”, the binding signal is 37900 fluorescence intensity (a.u.).

As to “GAGCAAAAGTCGCTCTTAAAACTATTAAAGGTGTTATTTTCGGAGTCACCTAGTGCAG”, the binding signal was 35800 fluorescence intensity (a.u.).

On to “GAGCTTTATATCACAACTCACCAAGGCCCCACGTCGAGTACGGAGTCACCTAGTGCAG”, for which the binding signal is 4130 fluorescence intensity (a.u.).

Take “CGGCGTGATTCTCCGTGTCTGCTGCTCTGCTCCACGTATTCGGAGTCACCTAGTGCAG”: the binding signal is 7040 fluorescence intensity (a.u.).

Regarding “TATTCCTATTTGGACTCTCCTTTTCTTTTCTAATTTTGGACGGAGTCACCTAGTGCAG”, the binding signal is 3780 fluorescence intensity (a.u.).

As to “GTGGTGGCTGCGGCTGCGCCATGTGGGTGTGGCATTGTTGCGGAGTCACCTAGTGCAG”, the binding signal is 3690 fluorescence intensity (a.u.).

Take “GATGTCTTTAAAGAGGATTATATGAAATTTGAGATGAAATCGGAGTCACCTAGTGCAG”: the binding signal is 3610 fluorescence intensity (a.u.).

As for “TGCCTGCCTCCACCTCACCTGTCTGCCGCGCGCCAAATATCGGAGTCACCTAGTGCAG”, the binding signal was 5320 fluorescence intensity (a.u.).

As for “TTTCTTCTTTGCGTCGTCATCGTCGTTCTTCGTCAAGCAGCGGAGTCACCTAGTGCAG”, the binding signal is 9010 fluorescence intensity (a.u.).

For the sequence “CAGACCAGCAGATTGATACCAACAAATTTATTGAGCAATGCGGAGTCACCTAGTGCAG”, the binding signal is 3410 fluorescence intensity (a.u.).

On to “TGTTTTGCAACTTCACCACGTCGGCAATTACCGCAACAAGCGGAGTCACCTAGTGCAG”, for which the binding signal is 6530 fluorescence intensity (a.u.).

“TCCATATGGAATTGCTGACTTTGCTGTGTTAGGGATTAATCGGAGTCACCTAGTGCAG”: the binding signal is 3730 fluorescence intensity (a.u.).

“GGAGTGACTTGGACAATCTGTTTACGTCATCTTATTATACCGGAGTCACCTAGTGCAG”: the binding signal was 10600 fluorescence intensity (a.u.).

With “AGCGGACTCCTCGTCGCGGCGTCGTCCCGGCCCACGAAAGCGGAGTCACCTAGTGCAG”, the binding signal was 3200 fluorescence intensity (a.u.).

Regarding “CGCCTCCTCCTCCGGCGCCACGTAAATGGCCGCTCCAAGCCGGAGTCACCTAGTGCAG”, the binding signal was 5390 fluorescence intensity (a.u.).

Turning to “ACATCATATAACGTGAAACGGAGGGAGGATATATAGTCAGCGGAGTCACCTAGTGCAG”, the binding signal is 3510 fluorescence intensity (a.u.).

As for “GCGAGGGGTGGTGCGACTGCATCATCGCGGCGGCGGCGGCCGGAGTCACCTAGTGCAG”, the binding signal was 3650 fluorescence intensity (a.u.).

As for “CGGCAATCCGGTGGTGCGTGACGTCGGCCATAGCGGTAGACGGAGTCACCTAGTGCAG”, the binding signal is 6070 fluorescence intensity (a.u.).

For the sequence “TTGTCTCCATCTGCTATGATCTTGCACGTGGCAAGCAAGTCGGAGTCACCTAGTGCAG”, the binding signal was 7330 fluorescence intensity (a.u.).

Consider “TTAAGAGCGGGTCGATGACTGGATGTGTTCCGGATTAGTACGGAGTCACCTAGTGCAG”, for which the binding signal is 5370 fluorescence intensity (a.u.).

As for “ACTGTTATTCCTACAGGCCAAAGCTGACCTAACCAATTCACGGAGTCACCTAGTGCAG”, the binding signal is 46800 fluorescence intensity (a.u.).

Take “ACGAGAGCGCGTACAGTAGCTGATGGTGTGGAAACAGGGCCGGAGTCACCTAGTGCAG”: the binding signal is 3280 fluorescence intensity (a.u.).

On to “CCCAAGTGGCGTCAGTGCGTCACCACCATTAACGTACGAGCGGAGTCACCTAGTGCAG”, for which the binding signal was 4980 fluorescence intensity (a.u.).

For “GGTACGGCATCCATGTGTGCAAATCATCATCCGCATGCAACGGAGTCACCTAGTGCAG”, the binding signal is 3660 fluorescence intensity (a.u.).

Regarding “TTGCTTAACATATGCAAGTCGTTTCGGGGAGAGGGGCAGACGGAGTCACCTAGTGCAG”, the binding signal is 3790 fluorescence intensity (a.u.).

Take “GTAACCCGGTGCGCCACCGACCGAGACGACGCACATCTCGCGGAGTCACCTAGTGCAG”: the binding signal was 3490 fluorescence intensity (a.u.).

For the sequence “TAGCCACACCCACACGCACACCCGATCGATCCTGGCATCCCGGAGTCACCTAGTGCAG”, the binding signal is 3400 fluorescence intensity (a.u.).

As for “CAATTGAAATGAATTATTGTCGTCCCTAGTTAATTACTAGCGGAGTCACCTAGTGCAG”, the binding signal is 3280 fluorescence intensity (a.u.).
